# Data: the supplement of paper PMC3334620
# Whole data set: some 33,000 sequences, median “E-score (-0.5 to 0.5)” near -0.015, cut for the highest 2% near 0.3. Some of the results follow.
# Target: T1, Abf1 (UniProt P14164)
# T1 sequence: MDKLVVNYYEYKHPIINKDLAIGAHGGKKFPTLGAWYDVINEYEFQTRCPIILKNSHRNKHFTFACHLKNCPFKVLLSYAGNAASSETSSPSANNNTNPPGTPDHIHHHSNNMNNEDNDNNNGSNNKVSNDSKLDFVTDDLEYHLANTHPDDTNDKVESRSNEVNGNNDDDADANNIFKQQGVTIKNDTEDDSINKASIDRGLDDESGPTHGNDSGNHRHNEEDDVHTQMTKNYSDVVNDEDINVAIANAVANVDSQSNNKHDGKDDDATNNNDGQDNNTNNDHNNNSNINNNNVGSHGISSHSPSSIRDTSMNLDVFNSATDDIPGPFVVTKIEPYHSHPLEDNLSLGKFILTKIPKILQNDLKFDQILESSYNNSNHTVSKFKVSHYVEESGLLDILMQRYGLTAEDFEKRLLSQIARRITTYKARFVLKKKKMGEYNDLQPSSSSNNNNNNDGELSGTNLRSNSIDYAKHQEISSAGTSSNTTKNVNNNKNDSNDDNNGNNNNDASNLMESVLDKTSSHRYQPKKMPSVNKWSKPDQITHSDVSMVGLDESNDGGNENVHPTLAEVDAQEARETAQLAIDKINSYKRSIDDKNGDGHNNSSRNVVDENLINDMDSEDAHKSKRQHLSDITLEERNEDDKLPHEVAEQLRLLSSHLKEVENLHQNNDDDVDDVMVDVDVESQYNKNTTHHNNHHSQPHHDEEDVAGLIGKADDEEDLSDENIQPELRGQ
# Test: PBM E-score (8-mer binding enrichment) (E-score (-0.5 to 0.5)); higher = stronger / more preferred TF binding
# Conditions: protein concentration: 200 nM; construct: GST-full length
# Method in brief: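 Using PURExpress in vitro transcription/translation, GST-tagged yeast transcription factors were made in full-length or DNA-binding-domain form. These were applied at about 100-200 nM to double-stranded universal all-10-mer Agilent arrays, and bound protein was detected with fluorescent anti-GST. Scans were normalised with masliner before the Universal PBM Analysis Suite assigned E-scores to ungapped eight-base words pooled with their reverse complements.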
row,Sequence,PBM E-score
1,ATAGCTTA,-0.0294
2,CATGATGC,0.123
3,CCGTGCGC,0.218
4,AGGAGACC,-0.21
5,CGTGTGCC,0.0926
6,ATGGCGCG,-0.129
7,GCAGCCCC,-0.257
8,GGATATTA,0.088
9,ACCTTACG,0.1
10,AGATGCAT,-0.058
11,CAACTCAG,-0.141
12,AGAGCCGA,-0.112
13,AGCTTTCC,-0.221
14,ATCCGAAC,-0.195
15,GGCTATTA,0.199
16,CTAGTACA,0.0965
17,AGGTGAGA,0.0141
18,CTCTGTGA,-0.118
19,CGTACCAA,0.353
20,GTGGACGA,0.204
21,AAACAGCG,-0.115
22,ACGTGATG,0.215
23,ACCACGAA,0.0971
24,AGGAAAAC,0.0249
25,CTCACTGC,-0.0817

row,Sequence,PBM E-score
1,ATGGCAGC,-0.268
2,AGGGAATC,-0.139
3,ATAACGAT,0.211
4,CATGTAGG,-0.00058
5,ATGGATAA,0.0572
6,TTTAAAAA,0.00896
7,GACTATTA,0.0634
8,ACTGCGCG,-0.141
9,AAATACTG,0.0702
10,AGCCGTCG,0.202
11,AGGGAAGA,-0.22
12,CAAGTATA,-0.159
13,CATACGGG,0.178
14,CACGGAGG,0.05
15,CCATCGAA,-0.157
16,CACCAGTG,0.00641
17,CAGACTAG,-0.177
18,CTCAGGAG,-0.109
19,ACGGCTGC,0.0827
20,CAGTTCCC,-0.0699
21,CAGTTGGG,-0.143
22,ATAATCGA,0.0981
23,AGAGTGGG,-0.0348
24,ACTTCCGC,-0.0166
25,CGCTGGAC,-0.186

row,Sequence,PBM E-score
1,AGTTTCAC,0.0678
2,ACCGTCGC,0.227
3,ACGCATAC,-0.0215
4,CTATTGCA,-0.0633
5,ACCTGTGG,-0.0102
6,ACATGACT,0.012
7,CGCAGTCA,-0.184
8,ATTGAGCA,-0.0473
9,AAGCTGTA,-0.201
10,AGAACCCT,-0.2
11,CTCCTAGA,-0.13
12,CAAATAGA,0.0564
13,GTACAAGA,0.137
14,AGCTGTTA,-0.0189
15,ACCCTCGA,-0.17
16,AAAATGAC,0.297
17,CGGAGGGC,-0.224
18,CTTCAATC,-0.0733
19,ACATTAAT,0.21
20,CATTGCAC,0.0878
21,CAATTCCC,-0.0618
22,TGCGTCAA,-0.00321
23,TCCGACGA,0.392
24,ATAACCCA,-0.0314
25,GATTGTCA,0.268

row,Sequence,PBM E-score
1,AACCTAGC,-0.175
2,AGAGAGAG,-0.215
3,CCGTTGGA,-0.136
4,AGTCCGAG,-0.123
5,ACAACCAT,0.0878
6,AGCTCACC,-0.0163
7,TACTACTA,0.11
8,CCACTGAG,-0.258
9,GATCCAAA,0.111
10,AGCACTGG,-0.168
11,CGCGATTC,0.0987
12,AGATCACC,0.311
13,ACCGCATC,0.16
14,CGAATCAG,0.0205
15,TACCGGGA,-0.103
16,AGTACAGA,0.0325
17,AACATTAA,0.0328
18,ACACTCGT,0.242
19,CTCATCTA,0.0696
20,GAGTTATC,0.139
21,CACCTTTA,-0.0514
22,AGTGTGTA,-0.0237
23,ATACCTAG,0.0418
24,AAGAGGAG,-0.125
25,CGGCGCCA,-0.044

# Part of the list above, tab-delimited:
row	Sequence	PBM E-score
1	AGTTTCAC	0.0678
2	ACCGTCGC	0.227
3	ACGCATAC	-0.0215
4	CTATTGCA	-0.0633
5	ACCTGTGG	-0.0102
6	ACATGACT	0.012
7	CGCAGTCA	-0.184
8	ATTGAGCA	-0.0473
9	AAGCTGTA	-0.201
10	AGAACCCT	-0.2
11	CTCCTAGA	-0.13
12	CAAATAGA	0.0564
13	GTACAAGA	0.137
14	AGCTGTTA	-0.0189
15	ACCCTCGA	-0.17
16	AAAATGAC	0.297
17	CGGAGGGC	-0.224
18	CTTCAATC	-0.0733
19	ACATTAAT	0.21
20	CATTGCAC	0.0878
21	CAATTCCC	-0.0618
22	TGCGTCAA	-0.00321
23	TCCGACGA	0.392
24	ATAACCCA	-0.0314
25	GATTGTCA	0.268
1	AACCTAGC	-0.175
2	AGAGAGAG	-0.215
3	CCGTTGGA	-0.136
4	AGTCCGAG	-0.123
5	ACAACCAT	0.0878
6	AGCTCACC	-0.0163
7	TACTACTA	0.11
8	CCACTGAG	-0.258
9	GATCCAAA	0.111
10	AGCACTGG	-0.168
11	CGCGATTC	0.0987
12	AGATCACC	0.311
13	ACCGCATC	0.16
14	CGAATCAG	0.0205
15	TACCGGGA	-0.103
16	AGTACAGA	0.0325
17	AACATTAA	0.0328
18	ACACTCGT	0.242
19	CTCATCTA	0.0696
20	GAGTTATC	0.139
21	CACCTTTA	-0.0514
22	AGTGTGTA	-0.0237
23	ATACCTAG	0.0418
24	AAGAGGAG	-0.125
25	CGGCGCCA	-0.044

# Continuation:

row,Sequence,PBM E-score
1,CCTGACAC,-0.00884
2,ACGCCCCG,-0.0726
3,CAGAGCCG,-0.088
4,GATAGTGC,-0.022
5,ACTAATGG,0.00087
6,CATCCCAC,-0.193
7,GATTCAAA,-0.15
8,ACACCACT,-0.123
9,CCACCCGC,-0.253
10,GTTTGGGA,0.133
11,AACAAGCT,-0.0113
12,CAAATTCA,-0.107
13,AATGTCCA,0.00471
14,CTAGCTAC,-0.0946
15,ATGGCAAT,0.0787
16,GACCGGGA,-0.0895
17,GATTTACC,0.137
18,GTAATTGA,0.157
19,CATAACGC,0.129
20,CATAGCGC,0.057
21,AGATATCA,0.3
22,TGGTATAA,0.0711
23,GAACTTCC,-0.12
24,CGTTTGAG,0.124
25,CCACACGA,0.0434

row,Sequence,PBM E-score
1,AAGCTCAG,-0.054
2,TAAGCTCA,0.0284
3,AAACGAAA,0.159
4,GATGTGAA,0.112
5,TAGGAACA,-0.116
6,AACGCGTT,0.201
7,GTTCCCCA,-0.043
8,AAACTTCC,-0.112
9,GATATACC,0.34
10,AGGAGGGC,-0.189
11,CTGGGAGC,-0.102
12,CCATTCCA,-0.243
13,CCATACCC,-0.264
14,CGGAGACA,0.143
15,CTGTGGGC,-0.0512
16,GGCACCGA,-0.186
17,GCGAAATA,-0.0511
18,AAAACATC,0.0849
19,CAACAGAG,-0.177
20,AACGCGTC,0.0437
21,GAAGCAAC,-0.0375
22,CGCGGTGA,0.115
23,AATCGCGC,0.211
24,AAAATTCG,0.175
25,ACCCTTAT,-0.036

row,Sequence,PBM E-score
1,CCCCCGGA,-0.3
2,ATTTTTCA,0.246
3,AGAAGAGA,-0.156
4,AAGAAGTC,-0.0736
5,CATGCGCG,0.0124
6,ATCGATCC,-0.276
7,CTACGAGA,0.113
8,ATGCTTGG,-0.127
9,TAACCGCA,0.0879
10,CGATCAAA,0.0235
11,AGGAATTA,0.0193
12,CCTCCCCG,-0.241
13,CTTCTGTA,0.0547
14,CAGTTTCG,-0.0369
15,GGTCCGAC,-0.165
16,AATGGAGC,-0.149
17,GGGTTAAA,-0.178
18,AACTTCCC,0.0636
19,GCGACCGA,0.148
20,CGAGCAGA,-0.182
21,CGAGAAAG,-0.134
22,AAGTTTGC,-0.0502
